The assay can be described thus: qHTS Assay for Lipid Storage Modulators in Drosophila S3 Cells.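 For cell number change: cells counted by Cell Tracker Red CMTPX staining in the red channel.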 The following applies: BODIPY lipid droplet fluorescence, 18-24 h; for cell number change: measured here: cell count max response, cells fed with added oleic acid. The gist of the method:
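Laser-scanning cytometry quantifies lipid droplet accumulation (500–530 nm total intensity; droplet/cell object ratio) in oleic acid-fed (400 uM added) Drosophila S3 cells treated with a concentration series. 20 uM Triacsin C defined 100% inhibition.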
(In general: Quantitative high-throughput screening tests each substance at several concentrations.)

The mark [1] stands for this setting: measured here: lipid fluorescence (Fed channel) AC50, cells fed with added oleic acid.
[2] abbreviates: measured here: cell number channel AC50, cells fed with added oleic acid.

Each structure is given as a SMILES string. The list shows a part of the results. Further columns of the screen follow, without active or inactive calls. Most of these compounds were active or inconclusive in the main read-out, so they are no random draw. Potencies come from curve fits of mixed quality, noted in brackets.

For orientation: AC50 means the concentration giving half of the maximal activity seen. A lower AC50 goes with activity at low concentration. Take `CC1CCN(C(=O)CSc2nnc(-c3cccnc3)n2C2CCCCC2)CC1`: the cell number change is 8.47%. In addition, the half-maximal activity concentration (AC50) under setting [1] is 1.46 µM [rising, partial curve].

For the molecule `O=C(CCC(=O)N1CCN(Cc2ccc(F)cc2)CC1)Nc1nnc(C2CCCCC2)s1`, the cell number change came out at 19.6%. Further, under setting [1], the AC50 is 29.1 µM [rising, single point].

On to `CN(C(=O)COC(=O)CNC(=O)c1sc2ccccc2c1Cl)c1ccccc1`, for which the cell number change worked out at 47.6%. Besides, the AC50 under setting [2] was 20.6 µM [rising, single point]. The concentration at half-maximal activity (AC50) under setting [1] is 6.51 µM [rising, single point].

Regarding `COC(=O)/C(=C\c1ccc(O)cc1)c1nc2ccccc2[nH]1`, under setting [2], the AC50 is 6.51 µM [rising, single point].

Regarding `CC1CCN(C(=O)CCc2nnc3ccc(NCc4ccco4)nn23)CC1`, the cell number change was -16.1%. Moreover, the half-maximal activity concentration (AC50) under setting [1] is 0.731 µM [falling, single point].

With `COc1ccccc1C(=O)N1CCC(C(=O)c2ccc(F)cc2)CC1`, the cell number change is 18.9%. Further, under setting [1], the AC50 was 1.16 µM [rising, partial curve].

With `Cn1c(=O)c(=O)n(C)c2cc(S(=O)(=O)N3CCCC3C(=O)Nc3ccccc3F)ccc21` (stereo not drawn), the cell number change is 1.44%. In addition, the concentration at half-maximal activity (AC50) under setting [2] is 0.00517 µM [rising, full curve, poor fit].

Regarding `CCCn1nc(C(=O)Nc2cccc(C(=O)OC)c2)c2ccccc2c1=O`, the cell number change is -21.1%. The AC50 under setting [1] was 0.0731 µM [rising, full curve].

As to `CCC(NS(=O)(=O)c1ccc(C)cc1)C(=O)Nc1ccc(NC(C)=O)cc1` (stereo not drawn), the cell number change came out at 9.14%. The AC50 under setting [1] is 0.82 µM [rising, partial curve].

Regarding `Cc1ccc(F)cc1NC(=O)c1ccc2c(c1)OCO2`, the cell number change amounted to 136%. The AC50 under setting [2] was 25.9 µM [rising, single point].

Regarding `COc1ccc(OC)c(NS(=O)(=O)c2ccc3c(c2)CCC(=O)N3)c1`, the cell number change amounted to 29.2%. For the same molecule, under setting [2], the AC50 is 4.61 µM [rising, full curve, poor fit].

In the case of `CC(=O)c1ccc(NC(=O)Cc2cccs2)cc1`, the cell number change was 8.21%. The concentration at half-maximal activity (AC50) under setting [1] is 3.26 µM [rising, single point].

As to `O=C(NCC1CCCO1)c1ccc(C(=O)NCC2CCCO2)cc1` (stereo not drawn), the cell number change is -88%. Also, the AC50 under setting [2] was 18.4 µM [falling, single point]. Moreover, the half-maximal activity concentration (AC50) under setting [1] was 18.4 µM [falling, single point].

On to `O=C(NCc1ccc(Cl)cc1)c1ccc2c(=O)n(CC3CCCO3)c(=S)[nH]c2c1` (stereo not drawn), for which the cell number change worked out at 18.9%.

Take `COc1ccccc1NS(=O)(=O)c1ccc(Cl)cc1`: the cell number change is -30.7%. For the same molecule, the concentration at half-maximal activity (AC50) under setting [2] is 14.6 µM [falling, partial curve, poor fit].

Consider `COCCCn1c(=O)c2sccc2n2c(CCCC(=O)NCc3ccc(OC)cc3)nnc12`, for which the cell number change was -2.29%. Moreover, the AC50 under setting [1] is 3.26 µM [rising, single point].

On to `COC(=O)c1cccc(COC(=O)CNC(=O)c2ccco2)c1`, for which the cell number change amounted to 10.2%. Besides, the half-maximal activity concentration (AC50) under setting [1] is 0.206 µM [falling, full curve, poor fit].

For the molecule `O=C(CCNC(=O)c1ccccc1Cl)NC1=NCCS1`, the cell number change is -25.8%.

Take `COc1ccc(S(=O)(=O)N2CCOCC2)cc1NC(=O)Cc1ccc2c(c1)OCCO2`: the cell number change is -22%. The AC50 under setting [1] was 29.1 µM [falling, single point].

As for `NC(=O)CSc1oc(-c2ccco2)nc1S(=O)(=O)c1ccc(Cl)cc1`, the cell number change is 22.2%. Under setting [1], the concentration at half-maximal activity (AC50) was 3.66 µM [falling, full curve, poor fit].

`CCCOc1ccc(N2C(=O)CC(N(Cc3ccc(S(N)(=O)=O)cc3)C(=O)CC)C2=O)cc1` (stereo not drawn): the cell number change is -18.7%.

Regarding `O=[N+]([O-])c1ccc(CSC2=NCCN2)cc1`, the cell number change was 12.9%. Also, under setting [1], the half-maximal activity concentration (AC50) is 0.82 µM [rising, single point].

Regarding `COc1ccc(N(C)C(=O)c2sc(Cl)nc2C)cc1`, the cell number change was -9.89%.

As to `COc1ccc(NC(=O)c2ccc(Cl)nc2)cc1S(=O)(=O)N1CCCCC1`, the cell number change is -20.3%.

On to `COc1ccc(C2CC(=O)C(C=NCC(C)C)=C(O)C2)cc1` (stereo not drawn), for which the cell number change was determined as 22.1%. Moreover, the AC50 under setting [2] was 0.13 µM [rising, full curve, poor fit]. Besides, the AC50 under setting [1] was 29.1 µM [rising, single point].

For `COc1cc(OC)cc(-n2nnnc2SCC(=O)Nc2nc3c(s2)CCCC3)c1`, the AC50 under setting [1] was 4.11 µM [rising, partial curve].

Turning to `COc1ccccc1-c1noc(CCC(=O)Nc2cc(C(F)(F)F)ccc2Cl)n1`, the cell number change was -13.6%. Besides, the AC50 under setting [1] is 0.366 µM [rising, partial curve, poor fit].

Turning to `COc1ccccc1N1C(=O)c2cccc3c(N(C)CCO)ccc(c23)C1=O`, the cell number change was -8.47%. Moreover, the half-maximal activity concentration (AC50) under setting [1] was 16.4 µM [falling, single point].

As to `O=C(c1ccc(Cl)nc1)N1CCN(S(=O)(=O)c2ccc3c(c2)OCCO3)CC1`, the cell number change is -14.4%.

For `O=C(NC(NNc1ccc([N+](=O)[O-])cc1)(C(F)(F)F)C(F)(F)F)c1ccc(F)cc1`, the cell number change amounted to 10%.

For `CCOc1ccc(-n2c(C)nc3cc(C(=O)NCC4CCCO4)ccc32)cc1` (stereo not drawn), the AC50 under setting [1] was 6.51 µM [rising, single point].

With `OC(COc1ccccc1)CN1CCN(C(c2ccccc2)c2ccccc2)CC1` (stereo not drawn), the cell number change was -39.2%. Besides, the AC50 under setting [2] was 14.6 µM [falling, partial curve, poor fit]. Also, the AC50 under setting [1] was 6.51 µM [falling, single point].

For the molecule `O=C1COc2ccc(C(=O)CSc3nnnn3-c3ccccc3)cc2N1`, the half-maximal activity concentration (AC50) under setting [2] was 6.51 µM [rising, single point].

For the molecule `c1ccc(-c2nc(-c3cccnc3)n[nH]2)cc1`, the cell number change came out at 8.62%. Under setting [1], the AC50 was 0.411 µM [rising, full curve, poor fit].

For `O=c1c2ccccc2cnn1Cc1n[nH]c(=S)n1-c1cc(Cl)cc(Cl)c1`, the cell number change was -16.4%. Besides, the concentration at half-maximal activity (AC50) under setting [2] was 6.51 µM [rising, single point]. For the same molecule, the concentration at half-maximal activity (AC50) under setting [1] was 0.13 µM [rising, partial curve, poor fit].

For `CCOc1ccc(N(CC(=O)N2CCN(c3ccccc3OC)CC2)S(=O)(=O)c2ccc(C)cc2)cc1`, the cell number change was -37.3%. In addition, the half-maximal activity concentration (AC50) under setting [2] is 14.6 µM [falling, single point].

For `O=C(O)c1ccc(Sc2ccccn2)c([N+](=O)[O-])c1`, the cell number change was -30.7%. Further, the AC50 under setting [2] was 6.51 µM [falling, single point].

As for `CCOC(=O)[C@@H](CCc1ccccc1)N[C@H](C)C(=O)N1[C@H](C(=O)O)C[C@@H]2CCC[C@@H]21`, the cell number change was 8.99%.

Regarding `COc1cccc(N2CCN(CC(=O)NC(=O)NC3CCCCC3)CC2)c1`, the cell number change is -9.09%.

On to `O=C(NCCN1CCOCC1)c1cc(-c2cccc(Cl)c2)on1`, for which the cell number change was 10.4%. In addition, the AC50 under setting [1] is 23.1 µM [rising, single point].

In the case of `CC(C)[C@H](CO)Nc1nc(Nc2ccc(Cl)c(C(=O)O)c2)c2ncn(C(C)C)c2n1`, the cell number change is -5.73%. In addition, the AC50 under setting [1] is 6.51 µM [falling, single point].

`COc1cc(NC(=O)NCc2ccncc2)cc(OC)c1OC`: the cell number change was -1.72%. For the same molecule, under setting [2], the AC50 was 0.517 µM [rising, single point].

In the case of `COc1ccccc1N=Nc1c(C)[nH][nH]c1=O`, the cell number change is -16.7%. Besides, the AC50 under setting [1] was 0.58 µM [rising, single point].

In the case of `Cc1ccc(CNS(=O)(=O)NCc2ccccc2)cc1`, under setting [1], the AC50 is 0.116 µM [falling, full curve, poor fit].

As for `Nc1c(C(=O)N2CCOCC2)sc2nc(N3CCOCC3)c3c(c12)CCCC3`, the cell number change is -34%. The concentration at half-maximal activity (AC50) under setting [2] was 18.4 µM [falling, single point]. In addition, the concentration at half-maximal activity (AC50) under setting [1] was 18.4 µM [falling, single point].

For the molecule `Cc1cc(Cl)n2nc(C)c(-c3ccc(Cl)cc3)c2n1`, the cell number change was -32.3%. For the same molecule, under setting [2], the concentration at half-maximal activity (AC50) is 29.1 µM [falling, single point].

With `Cc1cnc(N2C(=O)c3ccc([N+](=O)[O-])cc3C2=O)s1`, the cell number change is -24.4%.

With `CCn1ncc(NC(=S)Nc2ccc3c(c2)OCO3)c1C(N)=O`, the cell number change is -2.71%. Moreover, the half-maximal activity concentration (AC50) under setting [2] is 0.13 µM [rising, full curve, poor fit]. Under setting [1], the half-maximal activity concentration (AC50) was 6.51 µM [rising, partial curve, poor fit].

For `CCN(CC)S(=O)(=O)c1ccc(N2CCOCC2)c(NC(=O)COc2ccc(OC)cc2)c1`, the cell number change came out at 7.12%. Further, the concentration at half-maximal activity (AC50) under setting [1] was 0.326 µM [rising, partial curve, poor fit].

Consider `CCc1nnc(NC(=O)Cc2ccc(Br)cc2)s1`, for which the cell number change came to 31.2%. The AC50 under setting [1] is 36.6 µM [rising, single point].

For the molecule `COc1ccccc1C(=O)NNC(=O)C1CCN(C(=O)OC(C)(C)C)CC1`, the cell number change was -13.3%. Further, under setting [1], the AC50 is 0.58 µM [rising, single point].

As to `O=C(COc1cccnc1[N+](=O)[O-])N1CCN(C(=O)c2ccco2)CC1`, the cell number change was determined as 18.8%. Under setting [2], the AC50 is 4.11 µM [rising, single point]. The AC50 under setting [1] is 6.51 µM [rising, single point].

Turning to `CC(=O)c1ccc(S(=O)(=O)N2CCN(C(=O)c3ccc(N)c([N+](=O)[O-])c3)CC2)cc1`, the cell number change was determined as 16.9%. In addition, under setting [2], the half-maximal activity concentration (AC50) was 0.146 µM [rising, single point]. Moreover, under setting [1], the AC50 is 6.51 µM [rising, full curve, poor fit].

For the molecule `COc1ccc([C@]23Cc4cc(C#N)ccc4C(O2)c2c(c4ccc(OC)cc4oc2=O)O3)cc1`, the cell number change stood at 16.2%. In addition, the AC50 under setting [1] is 5.31 µM [rising, single point].

`COc1cc(OC)c(OC)cc1CNCCNC(=O)c1ccco1`: the cell number change was found to be 28.6%.

For `O=[N+]([O-])c1ccc(O)c(C=Nc2ccc3oc(Cc4ccc(Cl)cc4)nc3c2)c1`, the cell number change was -28.3%. Moreover, the concentration at half-maximal activity (AC50) under setting [1] is 29.1 µM [falling, single point].

As for `CCOC(=O)N1CCC(NC(=O)CCC(=O)c2ccccc2)CC1`, the cell number change was 8.86%.

As for `COc1ccccc1C(=O)Nc1cccc(NC(C)=O)c1`, the cell number change is -10.8%. In addition, the AC50 under setting [1] is 3.26 µM [rising, single point].

Consider `COc1ccc(NC(=O)CSc2nnc(-c3ccco3)n2N)cc1Cl`, for which the cell number change was -10.1%.

Take `Cc1cc(C)n(-c2nc3c(c(=O)[nH]c(=O)n3C)n2CC(O)c2ccccc2)n1` (stereo not drawn): under setting [1], the concentration at half-maximal activity (AC50) was 5.8 µM [rising, single point].

As to `COc1cc2nc(COc3ccc(C#N)cc3)n(CC#N)c(=O)c2cc1OC`, the cell number change is -13.1%. For the same molecule, the concentration at half-maximal activity (AC50) under setting [1] is 0.103 µM [rising, partial curve, poor fit].

`COc1ccc(C2=NOC(C(=O)N3CCCc4ccccc43)C2)cc1` (stereo not drawn): the cell number change was -16.5%.

The values above are taken from PubChem BioAssay AID2685 (National Center for Advancing Translational Sciences (NCATS), 2010).
